Source: PubChem BioAssay AID493246 (Drosophila RNAi Screening Center, 2011)

- Screen: 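Genome-wide search for dsRNAs that reduce cell number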 (primary screen)
- System: Drosophila Kc and S2R+ cells
- Reagents: long dsRNA against Drosophila genes
- Read-out: 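Cell number per well after knock-down, printed as raw plate values; calls were based on per-plate z-scores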
- Direction: Kc cell number and S2R+ cell number: higher = more cells remaining
- Call rule: 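Counted as a hit if cell number falls by a z-score of at least 3 within its plate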
The screen tested about 21,000 reagents; below is an unselected part of those that have a named target and a result. In the full data, 429 (2%) were called active. 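Values are raw and not normalised between plates; calls rest on per-plate z-scores that were not deposited.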 Unmarked entries are inactive. No sequences are given here. Not stated in the record: the amount of reagent, the time to read-out.

{"gene knocked down": "CG15534", "dsRNA": "DRSC15070", "Kc cell number, rep 1": 1.48e6, "Kc cell number, rep 2": 1.64e6, "S2R+ cell number, rep 1": 9.24e5, "S2R+ cell number, rep 2": 1.05e6}
{"gene knocked down": "CG12531", "dsRNA": "DRSC19466", "Kc cell number, rep 1": 1.49e6, "Kc cell number, rep 2": 1.52e6, "S2R+ cell number, rep 1": 1.05e6, "S2R+ cell number, rep 2": 1.16e6}
{"gene knocked down": "spz", "dsRNA": "DRSC17065", "Kc cell number, rep 1": 5.23e5, "S2R+ cell number, rep 1": 8.38e5}
{"gene knocked down": "CG13086", "dsRNA": "DRSC02190", "Kc cell number, rep 1": 1.86e6, "Kc cell number, rep 2": 1.90e6, "S2R+ cell number, rep 1": 1.29e6, "S2R+ cell number, rep 2": 2.82e5}
{"gene knocked down": "Rpt1", "dsRNA": "DRSC07542", "Kc cell number, rep 1": "4.80e5 (active)", "Kc cell number, rep 2": 6.59e5, "S2R+ cell number, rep 1": 5.11e5, "S2R+ cell number, rep 2": 6.26e5}
{"gene knocked down": "xit", "dsRNA": "DRSC18364", "Kc cell number, rep 1": 5.42e5, "S2R+ cell number, rep 1": 8.68e5}
{"gene knocked down": "CG17230", "dsRNA": "DRSC15203", "Kc cell number, rep 1": 1.55e6, "Kc cell number, rep 2": 1.61e6, "S2R+ cell number, rep 1": 1.32e6, "S2R+ cell number, rep 2": 1.33e6}
{"gene knocked down": "CG8119", "dsRNA": "DRSC20083", "Kc cell number, rep 1": 1.61e6, "Kc cell number, rep 2": 1.59e6, "S2R+ cell number, rep 1": 1.05e6, "S2R+ cell number, rep 2": 1.21e6}
{"gene knocked down": "prd", "dsRNA": "DRSC03597", "Kc cell number, rep 1": 1.36e6, "Kc cell number, rep 2": 1.35e6, "S2R+ cell number, rep 1": 1.34e6, "S2R+ cell number, rep 2": 1.32e6}
{"gene knocked down": "cas", "dsRNA": "DRSC12373", "Kc cell number, rep 1": 1.19e6, "Kc cell number, rep 2": 1.39e6, "S2R+ cell number, rep 1": 1.23e6, "S2R+ cell number, rep 2": 1.28e6}
{"gene knocked down": "Pkd2", "dsRNA": "DRSC02962", "Kc cell number, rep 1": 1.70e6, "Kc cell number, rep 2": 1.96e6, "S2R+ cell number, rep 1": 1.22e6, "S2R+ cell number, rep 2": 1.29e6}
{"gene knocked down": "CG34005", "dsRNA": "DRSC05700", "Kc cell number, rep 1": 5.45e5, "S2R+ cell number, rep 1": 7.97e5}
{"gene knocked down": "CG12594", "dsRNA": "DRSC14532", "Kc cell number, rep 1": 1.36e6, "Kc cell number, rep 2": 1.40e6, "S2R+ cell number, rep 1": 1.32e6, "S2R+ cell number, rep 2": 1.39e6}
{"gene knocked down": "CG15772", "dsRNA": "DRSC18078", "Kc cell number, rep 1": 1.42e6, "Kc cell number, rep 2": 1.44e6, "S2R+ cell number, rep 1": 1.01e6, "S2R+ cell number, rep 2": 1.10e6}
{"gene knocked down": "Rab11", "dsRNA": "DRSC16809", "Kc cell number, rep 1": 1.58e6, "Kc cell number, rep 2": 1.72e6, "S2R+ cell number, rep 1": 7.12e5, "S2R+ cell number, rep 2": 8.05e5}
{"gene knocked down": "eff", "dsRNA": "DRSC16940", "Kc cell number, rep 1": 1.01e6, "Kc cell number, rep 2": 1.27e6, "S2R+ cell number, rep 1": 8.21e5, "S2R+ cell number, rep 2": 7.83e5}
{"gene knocked down": "CG10195", "dsRNA": "DRSC02026", "Kc cell number, rep 1": 1.71e6, "Kc cell number, rep 2": 1.73e6, "S2R+ cell number, rep 1": 1.26e6, "S2R+ cell number, rep 2": 3.06e5}
{"gene knocked down": "Scm", "dsRNA": "DRSC16853", "Kc cell number, rep 1": 1.50e6, "Kc cell number, rep 2": 1.46e6, "S2R+ cell number, rep 1": 1.24e6, "S2R+ cell number, rep 2": 1.30e6}
{"gene knocked down": "CG3565", "dsRNA": "DRSC04389", "Kc cell number, rep 1": 1.46e6, "Kc cell number, rep 2": 1.59e6, "S2R+ cell number, rep 1": 1.15e6, "S2R+ cell number, rep 2": 1.29e6}
{"gene knocked down": "Chc", "dsRNA": "DRSC20229", "Kc cell number, rep 1": 5.07e5, "S2R+ cell number, rep 1": 7.80e5}
{"gene knocked down": "CG13325", "dsRNA": "DRSC06362", "Kc cell number, rep 1": 1.26e6, "Kc cell number, rep 2": 1.23e6, "S2R+ cell number, rep 1": 1.02e6, "S2R+ cell number, rep 2": 8.89e5}
